{"source": "patent US20160022683A1", "about": "“COMBINATIONS OF BRUTON'S TYROSINE KINASE INHIBITORS AND CYP3A4 INHIBITORS” (PHARMACYCLICS LLC, priority 2013, published 2016)", "settings": "PCI-45227 in plasma", "note": "Read-outs that look alike come from different tables or passages of the source. At least one structure is not confirmed: it was looked up by name or label, or the drawing left a doubt."}
{"smiles": "Nc1ncnc2c1c(-c1ccc(Oc3ccccc3)cc1)nn2[C@@H]1CCCN(C(=O)C(O)CO)C1", "note": "(stereo partly drawn) [PCI-45227]", "values": [{"measurement": "Vd/F", "setting": "Day 1, 120 mg Ibrutinib alone, geom. mean", "result": 6578, "unit": "L"}, {"measurement": "Vd/F", "setting": "Day 1, 120 mg Ibrutinib alone, mean", "result": 7073, "unit": "L"}, {"measurement": "Vd/F", "setting": "Day 1, 120 mg Ibrutinib alone, median", "result": 7059, "unit": "L"}, {"measurement": "Vd/F", "setting": "Day 7, 40 mg Ibrutinib + ketoconazole, geom. mean", "result": 11295, "unit": "L"}, {"measurement": "Vd/F", "setting": "Day 7, 40 mg Ibrutinib + ketoconazole, mean", "result": 11568, "unit": "L"}, {"measurement": "Vd/F", "setting": "Day 7, 40 mg Ibrutinib + ketoconazole, median", "result": 11182, "unit": "L"}]}
